The source of these data is article PMC9246382.

Protein sequences, listed by entry. Tags and fused reporters are not part of them. Lines headed by an entry give the natural chain unless they say otherwise; changes in a name come on top. Residues count along the entry.
UniProt Q16740: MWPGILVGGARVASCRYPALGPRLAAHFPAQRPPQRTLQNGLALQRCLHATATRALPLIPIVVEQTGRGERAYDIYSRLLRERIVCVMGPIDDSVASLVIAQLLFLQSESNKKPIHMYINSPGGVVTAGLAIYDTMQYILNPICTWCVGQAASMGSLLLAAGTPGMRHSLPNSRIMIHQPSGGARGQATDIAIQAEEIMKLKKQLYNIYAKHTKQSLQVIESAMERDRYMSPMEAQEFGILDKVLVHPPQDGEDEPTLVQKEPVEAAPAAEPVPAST
UniProt O88696, residues 53-272: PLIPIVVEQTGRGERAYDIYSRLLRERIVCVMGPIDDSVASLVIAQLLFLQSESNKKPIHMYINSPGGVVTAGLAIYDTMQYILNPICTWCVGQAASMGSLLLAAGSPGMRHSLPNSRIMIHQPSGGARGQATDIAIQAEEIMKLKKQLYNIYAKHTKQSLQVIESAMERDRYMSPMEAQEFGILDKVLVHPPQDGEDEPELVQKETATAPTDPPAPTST

Results are given in words; binding and its absence hold for the method and conditions named. Binding seen in cells or lysates may run through a third protein. Some results given as binding are weak or reduced against the parent protein; the word gives no strength.

Experiment [1] has as its target heat shock protein 60 (HSP60), endogenous in human prostate cancer cells (human (endogenous in LNCaP, PC-3, DU145)) (UniProt P10809). Put plainly: co-IP; double IP: first IP with anti-HSP60 antibody, then ClpP IP or HSP10 IP in the eluate, Western blotting for HSP60, HSP10 and ClpP.
For experiment [2] the target is unchanged. Put plainly: proximity ligation; cultured PCa cells (PC-3) and patient PCa specimens on a tissue microarray; also DCEM1-treated PC-3 cells and PC-3 xenograft tumors.
For experiment [3] the target is unchanged. Put plainly: co-IP; endogenous proteins in LNCaP, PC-3 and DU145 cells; also after ClpP overexpression and after DCEM1 treatment for 24 hours (DCEM1 inhibited HSP60-ClpP dose-dependently, not HSP60-HSP10).
Experiment [4] deals with HSP60 construct with a V5 tag (unchanged parent) (UniProt P10809). The experiment is described as follows: co-IP; V5-tagged HSP60 constructs cotransfected with FLAG-tagged ClpP in PC-3 cells; IP with anti-V5 or anti-FLAG antibody.
Experiment [5] concerns the target HSP60, endogenous in murine TKO prostate tumors (mouse (endogenous in TKO prostate tumors)) (UniProt P63038). Put plainly: co-IP; endogenous proteins in TKO prostatic tumor tissues (mouse).

Regarding “caseinolytic protease P (ClpP), endogenous in human prostate cancer cells (from UniProt Q16740 57-277) (enzyme)”, the binding entry in experiment [1], in experiment [2] and in experiment [3] was “binds” each time.

Consider “ClpP construct with a FLAG tag (from UniProt Q16740 57-277) (enzyme)”, for which the binding entry in experiment [4] is listed as “binds”.

“ClpP, endogenous in murine TKO prostate tumors (from UniProt O88696 53-272) (enzyme)”: the binding result in experiment [5] is given as “binds”.
